Measurements reported in publication PMC3511349.
These are yes or no findings as the source states them, for the method shown. In cells and extracts the contact can be indirect. Some results given as binding are weak or reduced against the parent protein; the word gives no strength. For some assays here: Where a sequence is shown, tags or fusion partners need not be part of it.

Protein sequences, listed by entry. Tags and fused reporters are not part of them.
UniProt Q9UM11: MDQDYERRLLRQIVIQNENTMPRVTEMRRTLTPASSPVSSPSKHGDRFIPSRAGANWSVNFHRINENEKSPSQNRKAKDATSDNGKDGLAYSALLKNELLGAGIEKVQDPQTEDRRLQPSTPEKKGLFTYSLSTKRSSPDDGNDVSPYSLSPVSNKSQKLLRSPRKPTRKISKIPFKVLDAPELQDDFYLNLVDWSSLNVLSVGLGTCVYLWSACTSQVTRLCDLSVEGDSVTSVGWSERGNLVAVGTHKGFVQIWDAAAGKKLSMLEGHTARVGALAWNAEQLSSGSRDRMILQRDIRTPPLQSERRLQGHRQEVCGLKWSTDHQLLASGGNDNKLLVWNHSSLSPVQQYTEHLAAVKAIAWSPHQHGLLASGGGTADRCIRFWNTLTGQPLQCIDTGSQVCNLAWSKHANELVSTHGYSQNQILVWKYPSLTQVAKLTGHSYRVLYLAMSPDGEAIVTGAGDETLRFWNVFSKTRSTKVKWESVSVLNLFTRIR
UniProt Q9HCE7: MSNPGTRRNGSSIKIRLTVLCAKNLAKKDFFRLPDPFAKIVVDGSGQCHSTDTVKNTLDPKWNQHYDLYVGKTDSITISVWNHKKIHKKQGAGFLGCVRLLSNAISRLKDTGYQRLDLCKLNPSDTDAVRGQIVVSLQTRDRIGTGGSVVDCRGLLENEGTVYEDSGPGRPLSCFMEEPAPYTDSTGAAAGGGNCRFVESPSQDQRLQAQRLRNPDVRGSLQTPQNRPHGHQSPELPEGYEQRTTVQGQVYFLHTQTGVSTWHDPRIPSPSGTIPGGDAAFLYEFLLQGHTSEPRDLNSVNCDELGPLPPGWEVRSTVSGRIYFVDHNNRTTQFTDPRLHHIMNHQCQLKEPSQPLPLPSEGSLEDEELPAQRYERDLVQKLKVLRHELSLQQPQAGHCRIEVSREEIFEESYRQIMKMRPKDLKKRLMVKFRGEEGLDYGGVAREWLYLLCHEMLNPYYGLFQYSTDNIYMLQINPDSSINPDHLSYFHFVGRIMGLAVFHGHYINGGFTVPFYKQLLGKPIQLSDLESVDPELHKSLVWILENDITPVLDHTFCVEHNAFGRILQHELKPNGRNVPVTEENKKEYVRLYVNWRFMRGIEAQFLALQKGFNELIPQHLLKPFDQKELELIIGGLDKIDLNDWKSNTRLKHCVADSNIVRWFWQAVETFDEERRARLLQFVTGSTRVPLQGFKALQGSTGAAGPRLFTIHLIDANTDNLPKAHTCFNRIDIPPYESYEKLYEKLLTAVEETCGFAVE

Columns and labels:
Test in all cases: co-IP; transfected 293T cells lysed in 150 mM NaCl, 210 mM Tris pH 7.4, 1 mM EDTA, 1% NP40, 10% glycerol; antibody (Myc, HA or GFP) 4 h at 4°C, Protein A Sepharose 1 h; washed 3 times with 1 M NaCl Triton-X100 buffer and once with PBS; immunoblot
[1] = target: Myc-p250GAP (not stated (human or mouse cDNA cloned)) (UniProt A7KAX9)
[2] = target: T1, Myc-p250GAP-C (not stated (human or mouse cDNA cloned)) (UniProt A7KAX9)
T1 sequence: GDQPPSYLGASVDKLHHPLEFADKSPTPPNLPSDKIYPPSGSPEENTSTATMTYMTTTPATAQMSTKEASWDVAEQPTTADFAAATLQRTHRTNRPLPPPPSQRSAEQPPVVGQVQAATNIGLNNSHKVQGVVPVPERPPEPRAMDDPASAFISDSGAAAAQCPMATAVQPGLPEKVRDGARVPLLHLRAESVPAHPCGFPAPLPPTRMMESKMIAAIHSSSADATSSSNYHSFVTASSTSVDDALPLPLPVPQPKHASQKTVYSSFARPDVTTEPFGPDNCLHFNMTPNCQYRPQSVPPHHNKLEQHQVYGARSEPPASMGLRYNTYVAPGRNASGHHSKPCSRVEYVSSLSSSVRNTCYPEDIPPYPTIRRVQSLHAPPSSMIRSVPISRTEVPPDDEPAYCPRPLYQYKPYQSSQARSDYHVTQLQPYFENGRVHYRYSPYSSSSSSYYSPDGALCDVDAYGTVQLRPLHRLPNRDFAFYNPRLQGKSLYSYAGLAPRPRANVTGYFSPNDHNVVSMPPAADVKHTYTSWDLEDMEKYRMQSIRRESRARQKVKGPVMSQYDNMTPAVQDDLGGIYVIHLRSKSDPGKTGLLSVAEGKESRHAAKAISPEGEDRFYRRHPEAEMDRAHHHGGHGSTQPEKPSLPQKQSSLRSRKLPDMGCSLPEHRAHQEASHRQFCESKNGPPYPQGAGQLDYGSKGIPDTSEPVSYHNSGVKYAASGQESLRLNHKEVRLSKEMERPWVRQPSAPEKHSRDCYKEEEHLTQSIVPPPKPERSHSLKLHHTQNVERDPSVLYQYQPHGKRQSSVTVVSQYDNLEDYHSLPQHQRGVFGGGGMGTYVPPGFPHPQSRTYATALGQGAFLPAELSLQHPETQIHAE

[3] = target: HA-Cdh1 (UniProt Q9UM11)
[4] = target: HA-Smurf1 (UniProt Q9HCE7)

binding [1] | binding [2] | binding [3] | binding [4] | Substance
binds | binds | – | – | GFP-Cdh1 (from UniProt Q9UM11 1-496)
binds | – | – | – | HA-Smurf1 (from UniProt Q9HCE7 1-757)
– | – | binds | binds | Myc-p250GAP (from UniProt A7KAX9-2 1-1738)
